Reference: PMC10362638

Chains of the proteins cited; added tags and fusions are not shown. Residues count along the entry.
UniProt P11362, residues 22-822: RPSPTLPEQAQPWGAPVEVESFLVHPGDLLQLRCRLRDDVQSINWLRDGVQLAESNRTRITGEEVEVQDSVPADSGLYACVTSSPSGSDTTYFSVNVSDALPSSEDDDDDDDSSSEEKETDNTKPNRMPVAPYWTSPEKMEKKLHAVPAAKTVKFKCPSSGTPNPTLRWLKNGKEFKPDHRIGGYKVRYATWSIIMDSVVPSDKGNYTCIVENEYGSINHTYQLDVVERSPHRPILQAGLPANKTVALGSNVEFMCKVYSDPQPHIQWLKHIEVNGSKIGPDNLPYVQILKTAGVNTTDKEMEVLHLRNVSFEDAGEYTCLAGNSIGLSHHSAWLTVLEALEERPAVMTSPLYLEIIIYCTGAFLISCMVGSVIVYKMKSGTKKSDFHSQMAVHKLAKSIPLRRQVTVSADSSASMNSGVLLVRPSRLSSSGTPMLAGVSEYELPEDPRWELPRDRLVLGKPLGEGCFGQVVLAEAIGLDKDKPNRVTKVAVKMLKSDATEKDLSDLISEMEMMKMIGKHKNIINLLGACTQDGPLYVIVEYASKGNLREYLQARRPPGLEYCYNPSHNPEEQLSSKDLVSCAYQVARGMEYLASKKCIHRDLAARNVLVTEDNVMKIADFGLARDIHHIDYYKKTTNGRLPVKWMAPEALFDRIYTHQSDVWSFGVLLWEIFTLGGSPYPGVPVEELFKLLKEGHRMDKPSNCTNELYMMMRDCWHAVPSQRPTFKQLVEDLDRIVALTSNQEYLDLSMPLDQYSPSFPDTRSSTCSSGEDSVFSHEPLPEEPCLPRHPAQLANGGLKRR
UniProt P22455, residues 22-802: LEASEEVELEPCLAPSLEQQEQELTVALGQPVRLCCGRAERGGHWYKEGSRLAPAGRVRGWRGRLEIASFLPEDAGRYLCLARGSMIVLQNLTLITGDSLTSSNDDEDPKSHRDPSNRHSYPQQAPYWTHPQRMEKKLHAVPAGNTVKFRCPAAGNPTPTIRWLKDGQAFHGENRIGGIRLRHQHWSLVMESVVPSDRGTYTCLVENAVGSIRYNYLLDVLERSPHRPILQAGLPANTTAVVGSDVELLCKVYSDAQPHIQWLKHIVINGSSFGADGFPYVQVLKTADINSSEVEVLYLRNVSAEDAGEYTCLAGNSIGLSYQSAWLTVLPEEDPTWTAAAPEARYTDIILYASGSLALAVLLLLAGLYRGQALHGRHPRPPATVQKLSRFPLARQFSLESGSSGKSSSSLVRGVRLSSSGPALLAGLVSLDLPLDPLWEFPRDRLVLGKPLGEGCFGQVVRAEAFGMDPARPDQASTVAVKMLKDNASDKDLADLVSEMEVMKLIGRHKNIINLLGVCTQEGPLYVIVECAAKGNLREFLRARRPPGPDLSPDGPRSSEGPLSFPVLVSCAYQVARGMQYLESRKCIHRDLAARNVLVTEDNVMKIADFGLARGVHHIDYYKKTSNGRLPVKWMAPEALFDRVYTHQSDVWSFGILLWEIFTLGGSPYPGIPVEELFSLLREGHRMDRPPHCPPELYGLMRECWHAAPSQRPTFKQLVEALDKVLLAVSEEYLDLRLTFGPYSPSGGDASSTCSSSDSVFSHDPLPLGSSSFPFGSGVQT

Target: SBP-FGFR1 (wild type fibroblast growth factor receptor 1 tagged N-terminally with streptavidin binding peptide) (UniProt P11362)
Test: affinity purification with mass spectrometry; serum-starved (4 h) U2OS-SBP-R1 and U2OS-SBP-R1.GF cells lysed in 50 mM Tris, 150 mM NaCl, 1 mM EDTA, 0.1% Nonidet P-40, pH 8.0; streptavidin-agarose overnight at 4 °C; label-free quantitative comparative MS; U2OS-R1 (untagged FGFR1) as control

| binding | Molecule |
| --- | --- |
| binds | endogenous FGFR4 (from UniProt P22455 22-802) (receptor) |
| binds | endogenous glypican-1 (protein, UniProt P35052 24-530) DPASKSRSCGEVRQIYGAKGFSLSDVPQAEISGEHLRICPQGYTCCTSEMEENLANRSHAELETALRDSSRVLQAMLATQLRSFDDHFQHLLNDSERTLQATFPGAFGELYTQNARAFRDLYSELRLYYRGANLHLEETLAEFWARLLERLFKQLHPQLLLPDDYLDCLGKQAEALRPFGEAPRELRLRATRAFVAARSFVQGLGVASDVVRKVAQVPLGPECSRAVMKLVYCAHCLGVPGARPCPDYCRNVLKGCLANQADLDAEWRNLLDSMVLITDKFWGTSGVESVIGSVHTWLAEAINALQDNRDTLTAKVIQGCGNPKVNPQGPGPEEKRRRGKLAPRERPPSGTLEKLVSEAKAQLRDVQDFWISLPGTLCSEKMALSTASDDRCWNGMARGRYLPEVMGDGLANQINNPEVEVDITKPDMTIRQQIMQLKIMTNRLRSAYNGNDVDFQDASDDGSGSGSGDGCLDDLCSRKVSRKSSSSRTPLTHALPGLSEQEGQKTS |

Results are given in words; binding and its absence hold for the method and conditions named. Binding seen in cells or lysates may run through a third protein. These calls come from enrichment with a bait or labelling near it, and not all partners need be listed.
